Values from PubChem BioAssay AID1224830 (NIAID, 2016).

Aim: 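Genes whose knock-down alters the TNF-alpha reporter response to LPS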 (primary screen)
Cells: human THP-1 monocytic leukaemia cells, TNF dual-luciferase reporter clone, PMA-differentiated to macrophage-like cells
Reagents: siRNA pool against human genes, 50 nM
Duration: LPS for 4 h, given about 3 days after siRNA transfection
Treatment: bacterial LPS (TLR4 ligand), 10 ng/ml
Read-out: 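Ratio of firefly to renilla light, scaled to the plate median and expressed as a robust z-score per replicate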
Direction: TNF reporter robust z-score: higher = stronger TNF reporter response to LPS
Rule for the call: 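a well is active when its z-score exceeds 2.8 or falls below -1.5; control wells carry no call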
In all, the deposit lists about 18,000 reagents; below is an unselected part. Of all reagents, about 2,900 (16%) are marked active. 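Calls are made per well; low scores hint the gene aids the LPS response, high scores that it dampens it.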 Repeated entries: four replicate wells of each siRNA pool.

gene | TNF reporter robust z-score | call
SOAT2 (sterol O-acyltransferase 2) | -0.64 | inactive
SOAT2 (sterol O-acyltransferase 2) | -0.76 | inactive
SOAT2 (sterol O-acyltransferase 2) | -1.53 | active
SOAT2 (sterol O-acyltransferase 2) | -0.48 | inactive
PROCA1 (protein interacting with cyclin A1) | -0.8 | inactive
PROCA1 (protein interacting with cyclin A1) | -0.75 | inactive
PROCA1 (protein interacting with cyclin A1) | -1.09 | inactive
PROCA1 (protein interacting with cyclin A1) | 9.33 | active
TOMM20 (translocase of outer mitochondrial membrane 20) | -0.69 | inactive
TOMM20 (translocase of outer mitochondrial membrane 20) | 1.77 | inactive
TOMM20 (translocase of outer mitochondrial membrane 20) | 0.47 | inactive
TOMM20 (translocase of outer mitochondrial membrane 20) | 0.39 | inactive
KRTAP3-1 (keratin associated protein 3-1) | -1.65 | active
KRTAP3-1 (keratin associated protein 3-1) | -1.82 | active
KRTAP3-1 (keratin associated protein 3-1) | -1.85 | active
KRTAP3-1 (keratin associated protein 3-1) | -1.71 | active
PRRT3 (proline rich transmembrane protein 3) | 0.21 | inactive
PRRT3 (proline rich transmembrane protein 3) | -0.42 | inactive
PRRT3 (proline rich transmembrane protein 3) | -0.12 | inactive
PRRT3 (proline rich transmembrane protein 3) | -0.04 | inactive
TAFA3 (TAFA chemokine like family member 3) | 1.39 | inactive
TAFA3 (TAFA chemokine like family member 3) | 1.17 | inactive
TAFA3 (TAFA chemokine like family member 3) | 1.1 | inactive
TAFA3 (TAFA chemokine like family member 3) | -0.89 | inactive
YBX2 (Y-box binding protein 2) | -0.61 | inactive
YBX2 (Y-box binding protein 2) | -0.56 | inactive
YBX2 (Y-box binding protein 2) | -0.36 | inactive
YBX2 (Y-box binding protein 2) | -0.53 | inactive
LINC00174 (long independently transcribed non-coding RNA 174) | -1.26 | inactive
LINC00174 (long independently transcribed non-coding RNA 174) | -1 | inactive
LINC00174 (long independently transcribed non-coding RNA 174) | -1.37 | inactive
LINC00174 (long independently transcribed non-coding RNA 174) | -1.27 | inactive
DRC9 (dynein regulatory complex subunit 9) | 0.21 | inactive
DRC9 (dynein regulatory complex subunit 9) | -0.25 | inactive
DRC9 (dynein regulatory complex subunit 9) | 0.24 | inactive
DRC9 (dynein regulatory complex subunit 9) | -0.13 | inactive
MYL6B (myosin light chain 6B) | -0.74 | inactive
MYL6B (myosin light chain 6B) | -1.36 | inactive
MYL6B (myosin light chain 6B) | -1.39 | inactive
MYL6B (myosin light chain 6B) | -0.95 | inactive
USP2 (ubiquitin specific peptidase 2) | -0.42 | inactive
USP2 (ubiquitin specific peptidase 2) | 0.52 | inactive
USP2 (ubiquitin specific peptidase 2) | -0.16 | inactive
USP2 (ubiquitin specific peptidase 2) | 1.03 | inactive
TBC1D26 (TBC1 domain family member 26) | -0.05 | inactive
TBC1D26 (TBC1 domain family member 26) | 1.86 | inactive
TBC1D26 (TBC1 domain family member 26) | 0.6 | inactive
TBC1D26 (TBC1 domain family member 26) | 0.56 | inactive
OR4M1 (olfactory receptor family 4 subfamily M member 1) | 1.17 | inactive
OR4M1 (olfactory receptor family 4 subfamily M member 1) | 2.37 | inactive
OR4M1 (olfactory receptor family 4 subfamily M member 1) | 1.23 | inactive
OR4M1 (olfactory receptor family 4 subfamily M member 1) | 2.47 | inactive
COPS8 (COP9 signalosome subunit 8) | -0.5 | inactive
COPS8 (COP9 signalosome subunit 8) | 0.72 | inactive
COPS8 (COP9 signalosome subunit 8) | 0.41 | inactive
COPS8 (COP9 signalosome subunit 8) | 0.24 | inactive
CELSR3 (cadherin EGF LAG seven-pass G-type receptor 3) | -0.32 | inactive
CELSR3 (cadherin EGF LAG seven-pass G-type receptor 3) | -0.97 | inactive
CELSR3 (cadherin EGF LAG seven-pass G-type receptor 3) | -0.68 | inactive
CELSR3 (cadherin EGF LAG seven-pass G-type receptor 3) | -0.71 | inactive
UGT2B7 (UDP glucuronosyltransferase family 2 member B7) | 0.2 | inactive
UGT2B7 (UDP glucuronosyltransferase family 2 member B7) | 0.32 | inactive
UGT2B7 (UDP glucuronosyltransferase family 2 member B7) | -0.9 | inactive
UGT2B7 (UDP glucuronosyltransferase family 2 member B7) | -0.3 | inactive
MAD2L1BP (MAD2L1 binding protein) | -0.26 | inactive
MAD2L1BP (MAD2L1 binding protein) | 0.18 | inactive
MAD2L1BP (MAD2L1 binding protein) | -0.07 | inactive
MAD2L1BP (MAD2L1 binding protein) | -0.46 | inactive
THAP6 (THAP domain containing 6) | 2.74 | inactive
THAP6 (THAP domain containing 6) | 2.91 | active
THAP6 (THAP domain containing 6) | -0.2 | inactive
THAP6 (THAP domain containing 6) | 1.55 | inactive
OR2B3 (olfactory receptor family 2 subfamily B member 3) | 3.28 | active
OR2B3 (olfactory receptor family 2 subfamily B member 3) | 7.77 | active
OR2B3 (olfactory receptor family 2 subfamily B member 3) | 3.5 | active
OR2B3 (olfactory receptor family 2 subfamily B member 3) | 4.86 | active
METTL25B (methyltransferase like 25B) | -0.28 | inactive
METTL25B (methyltransferase like 25B) | -0.47 | inactive
METTL25B (methyltransferase like 25B) | -0.48 | inactive
METTL25B (methyltransferase like 25B) | -0.06 | inactive
HPSE (heparanase) | -0.49 | inactive
HPSE (heparanase) | 0.06 | inactive
HPSE (heparanase) | 0.09 | inactive
HPSE (heparanase) | 0.67 | inactive
OR1L1 (olfactory receptor family 1 subfamily L member 1) | 2.46 | inactive
OR1L1 (olfactory receptor family 1 subfamily L member 1) | 1.71 | inactive
OR1L1 (olfactory receptor family 1 subfamily L member 1) | 2.61 | inactive
OR1L1 (olfactory receptor family 1 subfamily L member 1) | 2.96 | active
ENC1 (ectodermal-neural cortex 1) | 0.05 | inactive
ENC1 (ectodermal-neural cortex 1) | 0.91 | inactive
ENC1 (ectodermal-neural cortex 1) | -0.48 | inactive
ENC1 (ectodermal-neural cortex 1) | 1.31 | inactive
DDX24 (DEAD-box helicase 24) | 1.14 | inactive
DDX24 (DEAD-box helicase 24) | 1.95 | inactive
DDX24 (DEAD-box helicase 24) | 0.98 | inactive
DDX24 (DEAD-box helicase 24) | 1.92 | inactive
C1D (C1D nuclear receptor corepressor) | -0.36 | inactive
C1D (C1D nuclear receptor corepressor) | 0.43 | inactive
C1D (C1D nuclear receptor corepressor) | 0.24 | inactive
C1D (C1D nuclear receptor corepressor) | 0.14 | inactive
ZNF211 (zinc finger protein 211) | -0.44 | inactive
ZNF211 (zinc finger protein 211) | -0.83 | inactive
ZNF211 (zinc finger protein 211) | -0.32 | inactive
ZNF211 (zinc finger protein 211) | -0.55 | inactive
PARPBP (PARP1 binding protein) | -0.36 | inactive
PARPBP (PARP1 binding protein) | -0.14 | inactive
PARPBP (PARP1 binding protein) | -1.03 | inactive
PARPBP (PARP1 binding protein) | 0.08 | inactive
TATDN2 (TatD DNase domain containing 2) | -0.4 | inactive
TATDN2 (TatD DNase domain containing 2) | 0.58 | inactive
TATDN2 (TatD DNase domain containing 2) | 0.71 | inactive
TATDN2 (TatD DNase domain containing 2) | 2.06 | inactive

6 entries from above, set out differently.
DRC9 (dynein regulatory complex subunit 9)
- TNF reporter robust z-score: 0.24
- call: inactive

DRC9 (dynein regulatory complex subunit 9)
- TNF reporter robust z-score: -0.13
- call: inactive

MYL6B (myosin light chain 6B)
- TNF reporter robust z-score: -0.74
- call: inactive

MYL6B (myosin light chain 6B)
- TNF reporter robust z-score: -1.36
- call: inactive

MYL6B (myosin light chain 6B)
- TNF reporter robust z-score: -1.39
- call: inactive

MYL6B (myosin light chain 6B)
- TNF reporter robust z-score: -0.95
- call: inactive
